A: 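Polyketide synthase Pks13, Mycobacterium tuberculosis (UniProt I6X8D2). Enzyme assay of the thioesterase domain of polyketide synthase 13; the read-out is not stated. Tested at 30 µM. Higher reads as stronger inhibition (inferred from which compounds were picked for retests). About 67,000 compounds were tested under these conditions; 0.46% (about 300) showed 50% or more at least once.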
B: 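Enzyme assay of histidyl-tRNA synthetase; the read-out is not stated. Target: Histidine-tRNA ligase, Leishmania infantum (UniProt A4I591). Tested at 30 µM. Higher reads as stronger inhibition (inferred: compounds with an IC50 in retests scored well above the rest). The assay is labelled LdHisRS but filed under L. infantum. Size under these conditions: about 69,000 compounds, about 410 of them at 50% or above in at least one test.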

Chains of the proteins cited; added tags and fusions are not shown. Residues count along the entry.
UniProt I6X8D2, whole entry: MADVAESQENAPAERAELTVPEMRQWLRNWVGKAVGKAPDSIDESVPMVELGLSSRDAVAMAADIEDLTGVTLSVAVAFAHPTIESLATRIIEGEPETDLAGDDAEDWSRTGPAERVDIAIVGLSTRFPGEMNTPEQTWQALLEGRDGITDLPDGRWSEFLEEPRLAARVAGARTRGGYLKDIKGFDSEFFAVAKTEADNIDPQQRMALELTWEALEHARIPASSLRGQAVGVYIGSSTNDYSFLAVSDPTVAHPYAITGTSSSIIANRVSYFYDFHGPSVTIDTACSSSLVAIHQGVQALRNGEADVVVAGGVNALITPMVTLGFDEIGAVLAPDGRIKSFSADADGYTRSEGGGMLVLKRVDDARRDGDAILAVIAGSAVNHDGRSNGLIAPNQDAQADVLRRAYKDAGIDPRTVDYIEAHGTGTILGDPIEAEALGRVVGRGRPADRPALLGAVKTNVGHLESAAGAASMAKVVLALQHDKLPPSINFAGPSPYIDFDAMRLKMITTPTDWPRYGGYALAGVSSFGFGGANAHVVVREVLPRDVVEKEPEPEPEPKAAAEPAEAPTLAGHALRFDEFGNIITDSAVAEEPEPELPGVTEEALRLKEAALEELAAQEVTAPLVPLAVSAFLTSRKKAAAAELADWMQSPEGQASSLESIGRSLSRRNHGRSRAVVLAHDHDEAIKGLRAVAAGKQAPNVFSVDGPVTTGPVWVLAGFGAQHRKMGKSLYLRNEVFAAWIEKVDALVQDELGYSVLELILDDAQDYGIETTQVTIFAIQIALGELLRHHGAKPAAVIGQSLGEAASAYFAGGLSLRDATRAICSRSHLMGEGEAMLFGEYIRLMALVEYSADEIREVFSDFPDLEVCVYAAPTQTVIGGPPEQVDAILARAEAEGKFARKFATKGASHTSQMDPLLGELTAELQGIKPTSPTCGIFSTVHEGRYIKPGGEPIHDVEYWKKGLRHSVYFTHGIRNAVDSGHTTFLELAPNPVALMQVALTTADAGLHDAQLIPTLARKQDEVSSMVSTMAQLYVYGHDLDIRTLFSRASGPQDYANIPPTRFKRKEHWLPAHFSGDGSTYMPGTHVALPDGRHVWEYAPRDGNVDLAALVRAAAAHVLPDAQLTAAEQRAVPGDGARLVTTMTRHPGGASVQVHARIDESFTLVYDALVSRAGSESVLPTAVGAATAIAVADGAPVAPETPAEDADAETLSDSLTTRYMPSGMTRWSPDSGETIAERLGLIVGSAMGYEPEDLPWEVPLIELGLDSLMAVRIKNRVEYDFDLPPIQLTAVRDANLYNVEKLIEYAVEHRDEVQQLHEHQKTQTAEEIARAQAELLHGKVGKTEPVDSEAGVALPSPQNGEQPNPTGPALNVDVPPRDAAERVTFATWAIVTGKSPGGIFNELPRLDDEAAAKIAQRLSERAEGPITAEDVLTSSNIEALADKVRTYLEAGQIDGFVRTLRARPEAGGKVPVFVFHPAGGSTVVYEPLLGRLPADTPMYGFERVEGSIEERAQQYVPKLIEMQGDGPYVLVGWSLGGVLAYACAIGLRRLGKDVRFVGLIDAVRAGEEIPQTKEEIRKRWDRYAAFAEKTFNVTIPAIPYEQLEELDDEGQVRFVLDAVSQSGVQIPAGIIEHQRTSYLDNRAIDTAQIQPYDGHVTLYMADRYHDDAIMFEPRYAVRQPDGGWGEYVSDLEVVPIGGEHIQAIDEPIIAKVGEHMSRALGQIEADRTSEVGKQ
UniProt A4I591, 1-473: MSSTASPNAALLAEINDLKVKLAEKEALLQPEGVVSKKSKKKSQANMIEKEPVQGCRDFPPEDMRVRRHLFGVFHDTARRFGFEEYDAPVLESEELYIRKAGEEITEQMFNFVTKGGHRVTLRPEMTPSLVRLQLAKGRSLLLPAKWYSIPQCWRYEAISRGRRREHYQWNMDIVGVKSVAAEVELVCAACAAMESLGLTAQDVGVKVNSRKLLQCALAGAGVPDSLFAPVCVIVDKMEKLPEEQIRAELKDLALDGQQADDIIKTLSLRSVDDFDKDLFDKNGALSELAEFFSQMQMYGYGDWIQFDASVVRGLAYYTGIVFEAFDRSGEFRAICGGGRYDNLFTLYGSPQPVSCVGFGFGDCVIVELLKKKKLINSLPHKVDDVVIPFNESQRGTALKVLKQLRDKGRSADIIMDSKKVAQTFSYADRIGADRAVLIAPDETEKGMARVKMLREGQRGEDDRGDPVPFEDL

Each number is a percent effect as filed. The record does not define 0% and 100%; most values in the screen are far below 50% and negative numbers occur (in some assays of this library far below -100). Compounds were drawn at random from those tested, without regard to their results.

{"compound": "CS(=O)(=O)N1CCCC12CCCN(C(=O)c1ccno1)C2", "stereo": "stereo unspecified", "A": -23.29, "B": 9.211}
{"compound": "CC(C)N(CC(N)=O)Cc1c(Cl)ccc2cccnc12", "A": -30.02, "B": 18.75}
{"compound": "CC(C)n1ccnc1CN1CCCN(C(=O)CN(C)C2CC2)CC1", "B": 11.3}
{"compound": "Clc1snnc1CN1CCN(c2nccs2)CC1", "A": -24.55, "B": 23.68}
{"compound": "Cc1cc(CN(C)C(=O)CN2CC3(CCNCC3)OC2=O)n(C)n1", "A": -40.47, "B": 22.86}
{"compound": "CC1=Nc2c(c(O)nn2C2CCOCC2)C(c2cccnc2)S1", "stereo": "stereo unspecified", "A": -6.451, "B": 8.696}
{"compound": "CN1CCC(c2nnc3ccc(C(=O)N4CCCCC4)cn23)C1", "stereo": "stereo unspecified", "A": -16.49, "B": 1.01}
{"compound": "O=C1NCC[C@]12CN(Cc1cccnc1)C[C@H]2c1ccccc1", "B": 19.3}
{"compound": "COCC1c2c(cnn2CC2CC2)CCN1Cc1cc(C)on1", "stereo": "stereo unspecified", "A": -16.03, "B": 5.556}
{"compound": "CCc1ccc(CC)c(NCC(=O)N2CCCC(NC(C)=O)C2)c1", "stereo": "stereo unspecified", "A": -1.13, "B": 5.479}
{"compound": "C[S+]([O-])c1nncn1CC(=O)c1cccc(Br)c1", "stereo": "stereo unspecified", "A": -71.51, "B": 13.11}
{"compound": "COc1ccc(OCCN(C)C(=O)NC(C)c2nncn2C)cc1", "stereo": "stereo unspecified", "A": -6.173, "B": 17.57}
{"compound": "NC(=O)NC(=O)CCn1ccc(-c2ccc(F)cc2)n1", "A": -29.26, "B": 14.29}
{"compound": "O=C1CC[C@@H]2[C@@H](CCN2C(=O)C2CCOCC2)N1CC1CC1", "A": -23.73, "B": 26}
{"compound": "C=C(C)COc1cccc(CNC(COC)c2ccnn2C)c1", "stereo": "stereo unspecified", "A": -6.643, "B": 18.4}
{"compound": "Cc1cc(C)c(C#N)c(N2CCC(Cc3ccccc3)CC2)n1", "A": -0.8345, "B": 15.25}
{"compound": "c1cncc(-c2nnc(C3(c4ccc5c(c4)OCO5)CCOCC3)o2)c1", "A": -26.67, "B": 14.29}
{"compound": "Cc1nc(NC2CCS(=O)(=O)CC2)cc(C2CCCNC2)n1", "stereo": "stereo unspecified", "A": -31.7, "B": 13.68}
{"compound": "CN1CC2(CCN(C(=O)Cc3ccc(O)c(F)c3)CC2)CC1=O", "A": 16.86, "B": -4}
{"compound": "Cc1cc(C(=O)N(CC(C)C)CC(O)c2ccc(F)cc2)[nH]n1", "stereo": "stereo unspecified", "A": -8.327, "B": -2.41}
{"compound": "CN(C)[C@@H]1CN(Cc2ccco2)C[C@@H]2CCCO[C@@H]21", "A": -9.881, "B": 13.73}
{"compound": "Cc1nn(C)c(C)c1-c1ccnc(N(C)Cc2nc(C(C)C)no2)n1", "A": -29.33, "B": 23.94}
{"compound": "COc1cccc(C(C)Nc2ncnc3c2NC(=O)CN3)c1", "stereo": "stereo unspecified", "A": 0.433, "B": 23.46}
{"compound": "O=c1ccc2c(n1Cc1ccncc1)CCN(Cc1ccoc1)CC2", "A": 6.045, "B": 24.47}
{"compound": "Cc1cccc2cc(C(=O)N3CCSCC3)n(C)c12", "A": -9.74, "B": 12.12}
{"compound": "CC(C)C(=O)N1CCCC(c2cncc(Oc3cccnc3)n2)C1", "stereo": "stereo unspecified", "A": 7.283, "B": 12.37}
{"compound": "Cc1cncc(NCc2ccccc2N2CCOCC2)c1", "A": -29.78, "B": 10.96}
{"compound": "Cc1nnc(CN(Cc2ccc3c(c2)OCO3)C2CCC(C)CC2)o1", "stereo": "stereo unspecified", "A": 23.33, "B": 19.64}

Repeated from the top, 2 entries:

compound	A	B
CS(=O)(=O)N1CCCC12CCCN(C(=O)c1ccno1)C2 (stereo unspecified)	-23.29%	9.211%
CC(C)N(CC(N)=O)Cc1c(Cl)ccc2cccnc12	-30.02%	18.75%

The values are deposited in ChEMBL (CHEMBL3988442, “University of Dundee, Small-Polar-MMV Screening Library” (2021)).